Results are given in words; binding and its absence hold for the method and conditions named. Binding can be weak; no strength is given.
Biological target: β-tubulin of porcine brain, in taxol-stabilized microtubules (porcine)
Assay: cryo-EM structure; taxol-stabilized MTs (0.5 mg/ml) adsorbed on the grid, then repeated application of D. melanogaster GST-N-clamp (4 µM) in BRB80; 13-protofilament MTs, symmetry expansion and focused classification; AF2 model of the N-clamp rigid-body docked; both purified

B1: D. melanogaster Dgt6 (HAUS6 ortholog), N-clamp fragment with the CH domain (domain or fragment, UniProt Q9VAP2 1-280)
chain: MDRTIIAPWKAEEKEQSEKLHRKLQGLALVHPLPDELRKLIAWDMFLKPNQVAFVHVMHYLFRLLDPAEFKRRFFWPITDKKSEANFRSSTVEYLKHLNEKHQLHWANIKSYLVVMPGGMRFINFLLEFVGFVIQELIKQREKSLGLEAGTPNVSAKVMARQNAVMKEYASSYVVNLEENTALLRDKTQKIRRLMADLSADMGVPEEQLADDGFLDEFEATAALGVERVITQPTERKFDLEASLCGLKEAIDLFQVKQAENNQSKEAVEKALRGMRVLFD
binding: binds

Reference: PMC12373997
